{"sequences": {"note": "Protein sequences, listed by entry. Tags and fused reporters are not part of them. Lines headed by an entry give the natural chain unless they say otherwise; changes in a name come on top.", "UniProt O94826, whole entry, looked up": "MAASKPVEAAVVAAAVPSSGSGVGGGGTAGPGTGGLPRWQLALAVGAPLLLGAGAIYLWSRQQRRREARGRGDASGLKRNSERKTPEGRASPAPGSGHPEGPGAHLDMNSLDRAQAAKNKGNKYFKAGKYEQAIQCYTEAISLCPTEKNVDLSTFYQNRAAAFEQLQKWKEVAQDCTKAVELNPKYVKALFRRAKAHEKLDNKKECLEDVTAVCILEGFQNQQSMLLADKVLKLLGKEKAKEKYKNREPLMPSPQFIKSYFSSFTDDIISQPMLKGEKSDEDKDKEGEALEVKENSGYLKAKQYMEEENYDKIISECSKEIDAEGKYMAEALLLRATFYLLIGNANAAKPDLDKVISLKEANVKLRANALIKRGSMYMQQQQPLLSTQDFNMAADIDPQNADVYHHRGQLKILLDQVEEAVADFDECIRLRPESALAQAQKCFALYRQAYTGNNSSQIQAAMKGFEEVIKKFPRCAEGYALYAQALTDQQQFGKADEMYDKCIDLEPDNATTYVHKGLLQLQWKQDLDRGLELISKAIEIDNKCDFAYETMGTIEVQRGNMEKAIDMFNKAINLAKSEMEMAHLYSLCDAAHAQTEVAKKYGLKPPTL", "UniProt Q9NZR1": "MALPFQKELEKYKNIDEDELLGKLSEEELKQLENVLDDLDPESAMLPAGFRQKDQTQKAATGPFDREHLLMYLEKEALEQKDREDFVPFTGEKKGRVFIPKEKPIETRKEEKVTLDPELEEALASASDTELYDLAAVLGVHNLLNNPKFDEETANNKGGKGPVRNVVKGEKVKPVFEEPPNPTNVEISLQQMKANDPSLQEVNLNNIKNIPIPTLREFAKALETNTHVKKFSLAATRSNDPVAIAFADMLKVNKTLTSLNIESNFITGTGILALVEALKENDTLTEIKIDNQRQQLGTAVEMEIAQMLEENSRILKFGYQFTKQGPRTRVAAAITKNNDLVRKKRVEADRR", "UniProt Q6ZT21": "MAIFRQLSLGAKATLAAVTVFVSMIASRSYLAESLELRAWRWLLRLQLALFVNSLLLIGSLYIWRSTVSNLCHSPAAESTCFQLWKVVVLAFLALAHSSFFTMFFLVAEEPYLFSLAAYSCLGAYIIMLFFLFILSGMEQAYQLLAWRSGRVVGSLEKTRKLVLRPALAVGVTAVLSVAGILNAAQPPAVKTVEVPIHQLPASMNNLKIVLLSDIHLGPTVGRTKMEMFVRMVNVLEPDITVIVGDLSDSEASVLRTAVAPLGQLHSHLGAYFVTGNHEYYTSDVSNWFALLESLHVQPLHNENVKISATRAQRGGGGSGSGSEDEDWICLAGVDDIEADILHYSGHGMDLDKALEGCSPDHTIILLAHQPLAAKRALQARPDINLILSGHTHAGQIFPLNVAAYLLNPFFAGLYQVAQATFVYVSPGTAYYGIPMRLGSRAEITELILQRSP", "UniProt A0PJW6": "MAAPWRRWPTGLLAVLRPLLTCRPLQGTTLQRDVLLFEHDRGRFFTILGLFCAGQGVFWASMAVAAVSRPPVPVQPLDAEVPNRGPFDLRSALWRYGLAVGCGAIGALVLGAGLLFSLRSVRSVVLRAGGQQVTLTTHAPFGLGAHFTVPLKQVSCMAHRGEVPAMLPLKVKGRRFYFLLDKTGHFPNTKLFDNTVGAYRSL", "UniProt Q969M1": "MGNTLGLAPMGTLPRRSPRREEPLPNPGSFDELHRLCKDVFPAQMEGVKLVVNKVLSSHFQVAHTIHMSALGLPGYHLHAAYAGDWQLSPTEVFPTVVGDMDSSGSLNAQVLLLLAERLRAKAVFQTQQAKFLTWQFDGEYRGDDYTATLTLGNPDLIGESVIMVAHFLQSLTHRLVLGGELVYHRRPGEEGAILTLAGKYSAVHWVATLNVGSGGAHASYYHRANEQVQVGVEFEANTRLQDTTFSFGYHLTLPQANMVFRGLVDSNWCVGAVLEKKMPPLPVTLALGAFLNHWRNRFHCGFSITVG", "UniProt P06753, whole entry, looked up": "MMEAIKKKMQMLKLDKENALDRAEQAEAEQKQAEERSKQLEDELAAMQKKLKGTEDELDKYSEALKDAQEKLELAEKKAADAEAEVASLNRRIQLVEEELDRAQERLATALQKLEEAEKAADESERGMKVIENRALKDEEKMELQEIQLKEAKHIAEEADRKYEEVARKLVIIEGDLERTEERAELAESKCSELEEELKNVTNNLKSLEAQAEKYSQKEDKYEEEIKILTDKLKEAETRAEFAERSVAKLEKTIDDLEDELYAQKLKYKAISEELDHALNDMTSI", "UniProt Q2T9K0": "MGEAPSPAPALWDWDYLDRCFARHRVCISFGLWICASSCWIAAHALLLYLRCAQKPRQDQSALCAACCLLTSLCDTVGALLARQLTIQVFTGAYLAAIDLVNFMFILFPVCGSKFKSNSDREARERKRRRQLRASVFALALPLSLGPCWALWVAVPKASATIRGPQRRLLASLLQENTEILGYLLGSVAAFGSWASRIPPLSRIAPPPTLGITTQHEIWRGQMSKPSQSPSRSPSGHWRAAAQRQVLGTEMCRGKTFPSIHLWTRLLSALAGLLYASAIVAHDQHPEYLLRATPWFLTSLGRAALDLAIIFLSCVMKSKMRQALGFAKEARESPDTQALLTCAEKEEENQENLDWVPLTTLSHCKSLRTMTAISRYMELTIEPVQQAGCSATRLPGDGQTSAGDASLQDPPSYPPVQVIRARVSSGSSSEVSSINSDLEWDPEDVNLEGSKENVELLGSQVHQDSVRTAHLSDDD", "UniProt Q12888": "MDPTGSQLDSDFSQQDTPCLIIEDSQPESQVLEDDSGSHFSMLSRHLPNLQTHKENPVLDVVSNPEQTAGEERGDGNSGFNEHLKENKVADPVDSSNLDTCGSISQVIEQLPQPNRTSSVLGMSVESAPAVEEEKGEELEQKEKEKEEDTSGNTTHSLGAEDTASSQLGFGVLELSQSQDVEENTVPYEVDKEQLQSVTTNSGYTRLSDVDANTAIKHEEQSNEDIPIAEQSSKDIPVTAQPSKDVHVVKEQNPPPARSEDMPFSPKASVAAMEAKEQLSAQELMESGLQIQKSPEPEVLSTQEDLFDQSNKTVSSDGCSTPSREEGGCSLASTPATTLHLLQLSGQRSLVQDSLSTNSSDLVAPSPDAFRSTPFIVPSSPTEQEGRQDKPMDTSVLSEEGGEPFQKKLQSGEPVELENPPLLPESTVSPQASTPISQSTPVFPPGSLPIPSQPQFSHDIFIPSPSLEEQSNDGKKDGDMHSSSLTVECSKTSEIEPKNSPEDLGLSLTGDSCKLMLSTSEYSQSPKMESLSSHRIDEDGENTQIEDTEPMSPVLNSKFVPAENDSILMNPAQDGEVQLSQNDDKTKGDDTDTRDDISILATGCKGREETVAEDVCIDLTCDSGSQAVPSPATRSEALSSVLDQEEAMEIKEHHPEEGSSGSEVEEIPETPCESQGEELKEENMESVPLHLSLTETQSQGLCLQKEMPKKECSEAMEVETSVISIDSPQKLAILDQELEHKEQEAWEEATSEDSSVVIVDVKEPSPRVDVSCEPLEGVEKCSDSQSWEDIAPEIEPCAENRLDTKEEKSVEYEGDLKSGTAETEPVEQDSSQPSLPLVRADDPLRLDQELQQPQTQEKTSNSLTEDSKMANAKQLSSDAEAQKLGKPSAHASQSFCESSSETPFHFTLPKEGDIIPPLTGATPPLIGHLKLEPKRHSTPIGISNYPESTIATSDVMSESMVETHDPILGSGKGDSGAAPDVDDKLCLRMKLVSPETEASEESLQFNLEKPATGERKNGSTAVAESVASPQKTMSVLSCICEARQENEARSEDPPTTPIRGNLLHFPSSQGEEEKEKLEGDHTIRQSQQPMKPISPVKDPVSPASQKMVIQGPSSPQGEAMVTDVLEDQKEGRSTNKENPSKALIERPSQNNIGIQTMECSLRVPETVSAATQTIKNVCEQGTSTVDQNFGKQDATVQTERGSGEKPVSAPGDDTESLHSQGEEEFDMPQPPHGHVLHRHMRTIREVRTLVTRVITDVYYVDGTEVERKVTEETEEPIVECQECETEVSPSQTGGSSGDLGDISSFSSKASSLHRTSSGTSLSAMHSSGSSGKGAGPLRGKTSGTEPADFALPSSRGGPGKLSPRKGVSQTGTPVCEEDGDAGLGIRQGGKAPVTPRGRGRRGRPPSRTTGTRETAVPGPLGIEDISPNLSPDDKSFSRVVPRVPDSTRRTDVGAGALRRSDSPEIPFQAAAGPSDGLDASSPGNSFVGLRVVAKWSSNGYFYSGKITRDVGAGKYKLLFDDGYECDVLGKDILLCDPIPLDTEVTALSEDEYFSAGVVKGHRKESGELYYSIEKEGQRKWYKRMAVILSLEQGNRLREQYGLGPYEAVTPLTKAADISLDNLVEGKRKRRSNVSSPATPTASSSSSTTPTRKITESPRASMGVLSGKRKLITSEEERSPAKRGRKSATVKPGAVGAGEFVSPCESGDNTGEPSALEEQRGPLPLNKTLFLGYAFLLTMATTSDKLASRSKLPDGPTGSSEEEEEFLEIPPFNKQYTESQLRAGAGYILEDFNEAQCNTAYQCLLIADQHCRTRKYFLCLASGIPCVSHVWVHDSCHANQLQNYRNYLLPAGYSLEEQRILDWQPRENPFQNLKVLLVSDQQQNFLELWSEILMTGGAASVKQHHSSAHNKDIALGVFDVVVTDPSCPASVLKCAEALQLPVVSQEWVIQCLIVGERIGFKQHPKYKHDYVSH", "UniProt Q5JU69": "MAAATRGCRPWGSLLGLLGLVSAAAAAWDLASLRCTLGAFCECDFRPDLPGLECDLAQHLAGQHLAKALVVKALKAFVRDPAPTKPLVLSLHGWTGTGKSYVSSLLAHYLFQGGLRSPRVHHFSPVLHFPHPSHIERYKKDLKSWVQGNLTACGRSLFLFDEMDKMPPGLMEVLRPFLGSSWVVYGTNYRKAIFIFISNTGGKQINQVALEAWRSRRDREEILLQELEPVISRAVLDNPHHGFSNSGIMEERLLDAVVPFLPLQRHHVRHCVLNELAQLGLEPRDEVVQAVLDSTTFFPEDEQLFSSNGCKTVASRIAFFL", "UniProt O14787": "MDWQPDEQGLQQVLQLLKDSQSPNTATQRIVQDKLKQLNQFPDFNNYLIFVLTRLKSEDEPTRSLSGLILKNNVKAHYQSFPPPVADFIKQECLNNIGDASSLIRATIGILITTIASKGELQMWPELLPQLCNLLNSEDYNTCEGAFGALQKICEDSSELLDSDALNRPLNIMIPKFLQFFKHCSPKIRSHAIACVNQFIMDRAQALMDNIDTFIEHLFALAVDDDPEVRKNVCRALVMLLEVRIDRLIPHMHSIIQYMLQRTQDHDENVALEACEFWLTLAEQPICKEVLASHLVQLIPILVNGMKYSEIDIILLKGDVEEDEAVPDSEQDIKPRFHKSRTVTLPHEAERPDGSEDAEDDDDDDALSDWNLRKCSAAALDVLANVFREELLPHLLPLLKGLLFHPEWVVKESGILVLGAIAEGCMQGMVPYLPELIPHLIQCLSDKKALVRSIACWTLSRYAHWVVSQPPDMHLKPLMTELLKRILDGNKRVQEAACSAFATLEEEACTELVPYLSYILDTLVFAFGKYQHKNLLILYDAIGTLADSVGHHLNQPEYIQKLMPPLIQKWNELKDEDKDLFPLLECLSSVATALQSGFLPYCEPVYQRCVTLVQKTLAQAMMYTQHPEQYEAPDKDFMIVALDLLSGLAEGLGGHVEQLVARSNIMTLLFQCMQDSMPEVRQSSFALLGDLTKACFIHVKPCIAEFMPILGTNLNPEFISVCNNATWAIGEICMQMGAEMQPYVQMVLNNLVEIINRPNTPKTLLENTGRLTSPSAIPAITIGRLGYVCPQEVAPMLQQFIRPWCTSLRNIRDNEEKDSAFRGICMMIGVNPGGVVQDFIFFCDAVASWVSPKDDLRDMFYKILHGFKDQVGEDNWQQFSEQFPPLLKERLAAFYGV", "UniProt Q6NUQ4": "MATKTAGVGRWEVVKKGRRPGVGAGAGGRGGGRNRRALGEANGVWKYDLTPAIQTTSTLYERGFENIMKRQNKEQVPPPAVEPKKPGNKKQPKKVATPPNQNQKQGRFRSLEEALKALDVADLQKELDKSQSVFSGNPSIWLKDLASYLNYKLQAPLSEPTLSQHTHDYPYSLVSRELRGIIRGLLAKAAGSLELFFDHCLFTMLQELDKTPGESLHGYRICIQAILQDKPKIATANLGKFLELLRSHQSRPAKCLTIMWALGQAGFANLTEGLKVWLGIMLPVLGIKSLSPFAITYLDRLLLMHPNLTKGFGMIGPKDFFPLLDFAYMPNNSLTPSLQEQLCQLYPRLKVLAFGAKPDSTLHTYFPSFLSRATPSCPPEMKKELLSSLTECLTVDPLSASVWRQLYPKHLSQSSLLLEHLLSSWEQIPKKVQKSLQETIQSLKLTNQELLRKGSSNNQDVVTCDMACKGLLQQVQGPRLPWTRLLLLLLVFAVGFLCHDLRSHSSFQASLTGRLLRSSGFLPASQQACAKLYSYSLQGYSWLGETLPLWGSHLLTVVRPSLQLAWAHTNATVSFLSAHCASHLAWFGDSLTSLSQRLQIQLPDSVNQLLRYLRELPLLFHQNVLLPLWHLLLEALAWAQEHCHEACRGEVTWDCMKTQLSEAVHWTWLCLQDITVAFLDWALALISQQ"}, "source": "the supplement of paper PMC10849652", "note": "The list shows a part of the results.", "data": [{"compound": "C1=CC=C(C=C1)[C@H](COC2=CC3=C(C=C2)NC(=O)N3)NC(=O)C4=CC=CN(C4=O)CC5=CC(=C(C=C5)F)F", "assay": "log2 fold change, soluble protein after heating vs DMSO (PISA); higher = thermal stabilisation; K562 lysate, 10 uM; active = over 0.2 and 3.5 SD of the protein, either way, in both replicates (recomputed)", "in_short": "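Log-two fold change in thermal stability relative to solvent controls is reported from duplicates. For each sample, crude K562 extract from dounce-homogenised pellets in PBS pH 7.4 with 1 mM MgCl2, at 1 mg/mL protein, was treated with 10 μM compound for 30 min. Aliquots heated for 3 min across 48°C-58°C were pooled, brought to 0.5% NP-40 at 4°C and cleared at 21,000xg for 90 min. The supernatant was quantified by TMTpro 16plex LC-MS/MS with channel sums equalised.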", "values": [{"target": "TMEM8A (UniProt Q9HCN3)", "log2 fold change": "inactive: -0.132"}, {"target": "TMEM62 (UniProt Q0P6H9)", "log2 fold change": "inactive: 0.216"}, {"target": "TOMM70 (UniProt O94826)", "log2 fold change": "inactive: -0.025"}, {"target": "TNFAIP8 isoform 4 (UniProt O95379)", "log2 fold change": "inactive: -0.013"}, {"target": "TMOD2 (UniProt Q9NZR1)", "log2 fold change": "inactive: -0.068"}, {"target": "TRABD (UniProt Q9H4I3)", "log2 fold change": "inactive: 0.039"}, {"target": "TMPPE (UniProt Q6ZT21)", "log2 fold change": "inactive: -0.078"}, {"target": "TPCN1 isoform 3 (UniProt Q9ULQ1)", "log2 fold change": "inactive: -0.069"}, {"target": "TOR1AIP2 (UniProt Q8NFQ8)", "log2 fold change": "inactive: 0.007"}, {"target": "TMEM223 (UniProt A0PJW6)", "log2 fold change": "inactive: 0.221"}, {"target": "TOMM40L (UniProt Q969M1)", "log2 fold change": "inactive: -0.024"}, {"target": "TMEM242 (UniProt Q9NWH2)", "log2 fold change": "inactive: 0.127"}, {"target": "TMLHE isoform 8 (UniProt Q9NVH6)", "log2 fold change": "inactive: 0.029"}, {"target": "TNIP2 (UniProt Q8NFZ5)", "log2 fold change": "inactive: -0.095"}, {"target": "TMX3 (UniProt Q96JJ7)", "log2 fold change": "inactive: 0.007"}, {"target": "TPM3 (UniProt P06753)", "log2 fold change": "inactive: -0.018"}, {"target": "TMEM44 (UniProt Q2T9K0)", "log2 fold change": "inactive: -0.003"}, {"target": "TMX2 (UniProt Q9Y320)", "log2 fold change": "inactive: 0.045"}, {"target": "TONSL (UniProt Q96HA7)", "log2 fold change": "inactive: 0.008"}, {"target": "TP53BP1 isoform 2 (UniProt Q12888)", "log2 fold change": "inactive: 0.009"}, {"target": "TPT1 (UniProt P13693)", "log2 fold change": "inactive: 0.04"}, {"target": "TPP1 (UniProt O14773)", "log2 fold change": "inactive: -0.032"}, {"target": "TMEM41A (UniProt Q96HV5)", "log2 fold change": "inactive: -0.016"}, {"target": "TMTC3 (UniProt Q6ZXV5)", "log2 fold change": "inactive: -0.073"}, {"target": "TMEM245 (UniProt Q9H330)", "log2 fold change": "inactive: -0.012"}, {"target": "TMEM63A (UniProt O94886)", "log2 fold change": "inactive: -0.011"}, {"target": "TOR2A (UniProt Q5JU69)", "log2 fold change": "inactive: 0.037"}, {"target": "TOM1 (UniProt O60784)", "log2 fold change": "inactive: 0.04"}, {"target": "TMEM259 (UniProt Q4ZIN3)", "log2 fold change": "inactive: -0.041"}, {"target": "TMEM230 isoform 2 (UniProt Q96A57)", "log2 fold change": "inactive: -0.046"}, {"target": "TNPO2 (UniProt O14787)", "log2 fold change": "inactive: 0.006"}, {"target": "TMEM214 (UniProt Q6NUQ4)", "log2 fold change": "inactive: -0.087"}]}]}
